Source: publication PMC8974011
Results are given in words; binding and its absence hold for the method and conditions named. Some binding calls cover weakened binding; strength is not graded here.

Sequences of proteins named here, by UniProt entry; tags and fusion partners are left off. A change or cut given only in a name is not applied to a line headed by its entry. A line that says so, or that is headed by a name, gives the form on record, which may keep a tag or linker.
UniProt P42224: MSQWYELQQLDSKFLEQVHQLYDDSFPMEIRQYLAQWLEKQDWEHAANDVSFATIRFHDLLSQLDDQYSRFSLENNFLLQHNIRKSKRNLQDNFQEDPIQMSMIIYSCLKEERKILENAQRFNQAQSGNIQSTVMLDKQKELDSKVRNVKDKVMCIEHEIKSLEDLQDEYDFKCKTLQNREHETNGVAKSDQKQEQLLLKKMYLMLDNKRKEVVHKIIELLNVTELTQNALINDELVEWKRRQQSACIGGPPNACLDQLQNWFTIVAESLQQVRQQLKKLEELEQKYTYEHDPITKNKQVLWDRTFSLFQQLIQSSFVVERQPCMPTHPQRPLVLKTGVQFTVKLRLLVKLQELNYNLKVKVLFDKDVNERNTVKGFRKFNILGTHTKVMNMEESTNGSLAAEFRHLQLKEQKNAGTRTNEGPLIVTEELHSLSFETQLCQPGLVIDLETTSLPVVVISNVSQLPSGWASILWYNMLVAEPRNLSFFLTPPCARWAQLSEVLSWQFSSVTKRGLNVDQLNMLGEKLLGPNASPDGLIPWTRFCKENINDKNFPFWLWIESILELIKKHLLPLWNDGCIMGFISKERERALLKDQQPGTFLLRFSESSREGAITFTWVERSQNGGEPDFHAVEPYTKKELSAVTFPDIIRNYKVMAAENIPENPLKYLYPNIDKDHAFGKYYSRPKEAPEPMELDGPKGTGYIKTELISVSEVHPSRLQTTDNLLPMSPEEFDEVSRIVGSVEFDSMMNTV
quadruple mutant R274W/T385A/R602L/Y701F of STAT1-GFP (QM-GFP) (P42224, form named): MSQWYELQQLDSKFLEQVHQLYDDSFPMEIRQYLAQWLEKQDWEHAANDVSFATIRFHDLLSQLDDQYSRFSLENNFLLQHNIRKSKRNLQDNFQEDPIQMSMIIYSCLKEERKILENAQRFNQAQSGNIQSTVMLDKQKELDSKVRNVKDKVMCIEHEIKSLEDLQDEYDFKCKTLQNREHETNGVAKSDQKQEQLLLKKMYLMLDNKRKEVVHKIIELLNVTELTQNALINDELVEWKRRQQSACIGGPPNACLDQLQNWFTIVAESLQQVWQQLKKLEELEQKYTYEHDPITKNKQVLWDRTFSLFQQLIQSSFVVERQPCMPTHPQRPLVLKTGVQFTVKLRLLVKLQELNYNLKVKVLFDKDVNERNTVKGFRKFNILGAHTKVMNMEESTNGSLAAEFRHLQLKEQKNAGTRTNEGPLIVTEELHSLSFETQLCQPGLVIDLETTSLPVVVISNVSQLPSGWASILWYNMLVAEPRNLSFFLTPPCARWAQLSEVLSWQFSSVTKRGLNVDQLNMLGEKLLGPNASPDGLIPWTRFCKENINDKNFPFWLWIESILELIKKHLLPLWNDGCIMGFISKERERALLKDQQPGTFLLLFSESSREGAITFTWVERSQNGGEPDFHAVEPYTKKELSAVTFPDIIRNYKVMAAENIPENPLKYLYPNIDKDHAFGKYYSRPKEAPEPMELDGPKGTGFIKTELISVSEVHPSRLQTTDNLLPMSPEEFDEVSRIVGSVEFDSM

Biological target: endogenous STAT1 of HeLa cells (human (endogenous in HeLa)) (UniProt P42224)
Test: native gel or EMSA; extracts of IFNγ-stimulated HeLa cells incubated with [33P]-labelled 2xGAS duplex DNA (two tandem GAS sites); super-shift with STAT1 antibody; competition with 750-fold molar excess of unlabelled M67 DNA; 4.8% acrylamide gel at 4 °C; only DNA-bound complexes are seen

Row | Substance | binding
1 | pEGFPN1-STAT1α (WT-GFP): human STAT1 (amino acids 1–746) with carboxy-terminal green fluorescent protein (from UniProt P42224 1-746) | binds
2 | quadruple mutant R274W/T385A/R602L/Y701F of STAT1-GFP (QM-GFP) (from UniProt P42224 1-746) | no binding
